Publication PMC7862700
Only a part is listed here, and it is no random draw. At the low end of the ranking, values are background and their order means little.

Protein sequences, listed by entry. Tags and fused reporters are not part of them. Lines headed by an entry give the natural chain unless they say otherwise; changes in a name come on top.
UniProt Q9Y603: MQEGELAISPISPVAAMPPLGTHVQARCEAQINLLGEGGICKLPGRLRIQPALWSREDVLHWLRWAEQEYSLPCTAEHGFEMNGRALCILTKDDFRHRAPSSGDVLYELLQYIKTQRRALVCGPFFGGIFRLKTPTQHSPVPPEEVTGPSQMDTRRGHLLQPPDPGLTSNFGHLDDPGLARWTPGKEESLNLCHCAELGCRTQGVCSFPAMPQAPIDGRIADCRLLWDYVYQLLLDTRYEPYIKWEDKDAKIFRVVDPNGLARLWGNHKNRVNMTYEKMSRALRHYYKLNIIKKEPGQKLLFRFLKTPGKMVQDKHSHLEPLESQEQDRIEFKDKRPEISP
UniProt P41212: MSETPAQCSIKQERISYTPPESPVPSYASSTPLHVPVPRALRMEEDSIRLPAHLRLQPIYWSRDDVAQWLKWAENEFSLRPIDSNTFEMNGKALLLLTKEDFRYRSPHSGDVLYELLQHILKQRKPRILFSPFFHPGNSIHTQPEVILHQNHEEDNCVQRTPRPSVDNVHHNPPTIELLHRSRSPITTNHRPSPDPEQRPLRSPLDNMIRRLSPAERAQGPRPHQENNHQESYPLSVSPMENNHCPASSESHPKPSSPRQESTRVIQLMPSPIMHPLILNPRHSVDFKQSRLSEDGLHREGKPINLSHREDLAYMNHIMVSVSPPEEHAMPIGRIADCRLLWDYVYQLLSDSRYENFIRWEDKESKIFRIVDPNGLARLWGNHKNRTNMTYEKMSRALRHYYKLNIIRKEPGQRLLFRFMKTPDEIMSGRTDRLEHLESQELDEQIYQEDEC

Assays:
Test in all cases: DAPPL (digital affinity profiling via proximity ligation, sequencing)
Conditions in all cases: 10 mM Tris-HCl pH 7.5, 50 mM NaCl, 1 mM DTT, 4% glycerol, room temperature, 30 min; GST-TFs on glutathione beads, 16-mer random dsDNA library, 0.1% …; high values mean tight binding; double strand, one strand shown; scale: fold enrichment (6-mer frequency, TF over GST control)
ELF3 = target: T1, ELF3 (UniProt P78545)
T1 sequence: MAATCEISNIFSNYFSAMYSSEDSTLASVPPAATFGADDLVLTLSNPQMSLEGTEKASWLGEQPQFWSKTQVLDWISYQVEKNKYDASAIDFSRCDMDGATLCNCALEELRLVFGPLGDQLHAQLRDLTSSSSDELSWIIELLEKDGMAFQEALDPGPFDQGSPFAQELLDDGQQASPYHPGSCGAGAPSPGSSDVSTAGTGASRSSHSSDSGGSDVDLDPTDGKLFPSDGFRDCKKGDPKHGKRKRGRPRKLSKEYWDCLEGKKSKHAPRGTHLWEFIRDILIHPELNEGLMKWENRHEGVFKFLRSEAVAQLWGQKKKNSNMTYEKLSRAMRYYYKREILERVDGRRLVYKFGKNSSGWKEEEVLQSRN

ETV7 = ETV7 (UniProt Q9Y603)
ETV6 = ETV6 (UniProt P41212)

Row | Sequence | binding signal (ELF3) | binding signal (ETV7) | binding signal (ETV6)
1 | GCCAGC | 0.784 | 0.778 | 0.684
2 | GGGAGC | 0.465 | 0.426 | 0.437
3 | ATCGTG | 0.426 | 0.426 | 0.4
4 | GGGGGT | 0.596 | 0.672 | 0.475
5 | GGGATA | 0.813 | 0.861 | 0.761
6 | CAGCGG | 0.478 | 0.486 | 0.486
7 | CGGCAG | 0.868 | 0.743 | 0.861
8 | GAGTAG | 0.557 | 0.584 | 0.473
9 | GTGTAG | 0.572 | 0.814 | 0.679
10 | AGTAGT | 0.939 | 0.995 | 0.989
11 | GACAGG | 0.592 | 0.674 | 0.58
12 | GCATAG | 0.788 | 0.786 | 0.821
13 | CCCGTG | 0.574 | 0.542 | 0.492
14 | AGTAGG | 0.678 | 0.735 | 0.721
15 | CTGGAG | 0.675 | 0.642 | 0.655
16 | GCGGAG | 0.318 | 0.353 | 0.262
17 | CCACGG | 0.895 | 0.859 | 0.842
18 | ATCAGG | 0.815 | 0.878 | 0.911
19 | GGCCGC | 0.815 | 0.739 | 0.785
20 | TAAGTG | 0.786 | 0.856 | 0.768
21 | TCAGCG | 0.986 | 0.825 | 0.715

Row | Sequence | binding signal (ELF3) | binding signal (ETV7) | binding signal (ETV6)
22 | GCGTGG | 0.408 | 0.576 | 0.544
23 | CGCAGG | 0.855 | 0.891 | 0.852
24 | TGAGTC | 0.197 | 0.245 | 0.199
25 | AGACAT | 0.827 | 0.91 | 0.875
26 | GAGCAG | 0.627 | 0.622 | 0.646
27 | GCAGTG | 0.588 | 0.617 | 0.582
28 | GTGATA | 0.634 | 0.669 | 0.732
29 | CGTGAC | 0.59 | 0.56 | 0.566
30 | CAGTTT | 0.851 | 0.907 | 0.922
31 | AAGCCA | 0.928 | 0.864 | 0.817
32 | ATAGGA | 0.779 | 0.802 | 0.856
33 | AACCAG | 0.854 | 0.871 | 0.736
34 | GTGTCG | 0.595 | 0.683 | 0.588
35 | GACGTG | 0.314 | 0.339 | 0.341
36 | GGACCG | 0.712 | 0.82 | 0.829
37 | AGCAGG | 0.904 | 0.888 | 0.957
38 | CGGCGG | 0.523 | 0.595 | 0.596
39 | GTCATC | 0.841 | 0.858 | 0.906
40 | GTCTGT | 0.939 | 0.92 | 0.805
41 | ACGTGG | 0.588 | 0.587 | 0.604
42 | TAGGTG | 0.875 | 0.901 | 0.823

22 entries from above, set out differently.
Row	Sequence	binding signal (ELF3)	binding signal (ETV7)	binding signal (ETV6)
18	ATCAGG	0.815	0.878	0.911
19	GGCCGC	0.815	0.739	0.785
20	TAAGTG	0.786	0.856	0.768
21	TCAGCG	0.986	0.825	0.715
22	GCGTGG	0.408	0.576	0.544
23	CGCAGG	0.855	0.891	0.852
24	TGAGTC	0.197	0.245	0.199
25	AGACAT	0.827	0.91	0.875
26	GAGCAG	0.627	0.622	0.646
27	GCAGTG	0.588	0.617	0.582
28	GTGATA	0.634	0.669	0.732
29	CGTGAC	0.59	0.56	0.566
30	CAGTTT	0.851	0.907	0.922
31	AAGCCA	0.928	0.864	0.817
32	ATAGGA	0.779	0.802	0.856
33	AACCAG	0.854	0.871	0.736
34	GTGTCG	0.595	0.683	0.588
35	GACGTG	0.314	0.339	0.341
36	GGACCG	0.712	0.82	0.829
37	AGCAGG	0.904	0.888	0.957
38	CGGCGG	0.523	0.595	0.596
39	GTCATC	0.841	0.858	0.906

(cont.)

Row | Sequence | binding signal (ELF3) | binding signal (ETV7) | binding signal (ETV6)
43 | CAGACG | 0.505 | 0.556 | 0.436
44 | CGCAGT | 0.675 | 0.788 | 0.777
45 | GTCGGA | 0.162 | 0.221 | 0.164
46 | ACTAGT | 0.846 | 0.893 | 0.896
47 | ATCGAG | 0.888 | 0.844 | 0.892
48 | AAACGT | 0.901 | 0.97 | 0.957
49 | CCCGGG | 0.629 | 0.764 | 0.795
50 | AGGTGC | 0.656 | 0.707 | 0.626
51 | GAGTCA | 0.306 | 0.32 | 0.268
52 | GGGTGA | 0.616 | 0.649 | 0.671
53 | GGCGTG | 0.301 | 0.356 | 0.346
54 | ATCCAG | 0.893 | 0.841 | 0.857
55 | GTGAGT | 0.123 | 0.17 | 0.142
56 | AAAGGA | 0.995 | 0.948 | 0.945
57 | TGTAGT | 0.896 | 0.942 | 0.904
58 | CACGTG | 0.55 | 0.667 | 0.611
59 | CGGCCA | 0.81 | 0.75 | 0.742
60 | AGAGTC | 0.453 | 0.489 | 0.467
61 | AGTCCG | 0.593 | 0.529 | 0.593
62 | CACGAG | 0.784 | 0.872 | 0.865
63 | TCAGGA | 0.733 | 0.774 | 0.897

Row | Sequence | binding signal (ELF3) | binding signal (ETV7) | binding signal (ETV6)
64 | GACCCT | 0.952 | 0.911 | 0.914
65 | GCATGT | 0.771 | 0.806 | 0.785
66 | GCATCG | 0.692 | 0.765 | 0.808
67 | AGTAGA | 0.856 | 0.771 | 0.8
68 | GATGAG | 0.819 | 0.884 | 0.845
69 | CGTAGA | 0.799 | 0.76 | 0.71
70 | GTGGAC | 0.891 | 0.929 | 0.916
71 | ACCAGT | 0.462 | 0.535 | 0.441
72 | GCATTG | 0.781 | 0.892 | 0.81
73 | TAGAGT | 0.902 | 0.803 | 0.691
74 | AAGGAG | 0.321 | 0.396 | 0.374
75 | CGGGCC | 0.748 | 0.811 | 0.732
76 | GAGGGT | 0.565 | 0.644 | 0.555
77 | GTAACG | 0.828 | 0.925 | 0.92
78 | CGTGCT | 0.907 | 0.884 | 0.823
79 | GAGTTC | 0.677 | 0.776 | 0.737
80 | GAGAGA | 0.478 | 0.464 | 0.379
81 | GACCAT | 0.912 | 0.841 | 0.821
82 | GTCCGA | 0.862 | 0.922 | 0.915
83 | GACATA | 0.97 | 0.878 | 0.906
84 | GACAGA | 0.68 | 0.715 | 0.598

An excerpt from further up, for reference:
Row | Sequence | binding signal (ELF3) | binding signal (ETV7) | binding signal (ETV6)
80 | GAGAGA | 0.478 | 0.464 | 0.379
81 | GACCAT | 0.912 | 0.841 | 0.821
